Percent effect of library compounds

Protein sequences, listed by entry. Tags and fused reporters are not part of them.
UniProt P9WFT3, whole entry: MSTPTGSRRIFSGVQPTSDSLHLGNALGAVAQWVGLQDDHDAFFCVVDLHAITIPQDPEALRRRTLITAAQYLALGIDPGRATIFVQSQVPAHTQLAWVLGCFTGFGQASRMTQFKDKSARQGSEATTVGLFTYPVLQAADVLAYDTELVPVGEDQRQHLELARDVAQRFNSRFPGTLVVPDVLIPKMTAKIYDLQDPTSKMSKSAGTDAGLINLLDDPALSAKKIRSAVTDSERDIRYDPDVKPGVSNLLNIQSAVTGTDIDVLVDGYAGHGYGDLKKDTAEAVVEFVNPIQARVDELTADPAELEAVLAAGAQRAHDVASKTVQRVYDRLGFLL

Leishmania in macrophages: 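Cell assay of Leishmania donovani living inside macrophages; the read-out is not stated. Concentration: 30 µM. Direction is inferred from retests: higher values go with stronger inhibition. About 69,000 compounds were tested under these conditions; 1.5% (about 1,000) showed 50% or more at least once.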
MtTrpRS: 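Enzyme assay of tryptophanyl-tRNA synthetase; the read-out is not stated. Target: Tryptophan-tRNA ligase, Mycobacterium tuberculosis (UniProt P9WFT3). Tested at 10 µM. Direction is not recorded; retested compounds ran higher, which suggests that high means inhibition. Of about 65,000 compounds tested this way, about 64 (0.098%) reached 50% or more in at least one test.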
T. brucei: 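Whole-parasite assay of Trypanosoma brucei over 72 hours; the read-out is not stated. Concentration: 30 µM. Higher reads as stronger inhibition (inferred: compounds with an IC50 in retests scored well above the rest). Values scatter widely below zero; nearly all retest evidence comes from the higher of the two concentrations used. Of about 64,000 compounds tested this way, about 940 (1.5%) reached 50% or more in at least one test.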

Values are the deposited “Percent Effect”, in %.
The record does not define 0% and 100%; most values in the screen are far below 50% and negative numbers occur (in some assays of this library far below -100).
This is an unselected part of the compounds tested.
Two or more numbers in one place are separate tests of the same structure; such repeats can differ widely.
A dash means the value is not listed here; it may have been measured.

compound,Leishmania in macrophages,MtTrpRS,T. brucei
[H][C@@]12CNC[C@]1([H])[C@H]2CN1CCCn2nc(CNC(=O)N(C)C)cc2C1,-26.03,-,-22.6
CN(Cc1nccs1)c1nc(-c2ccccn2)nc2c1CCNCC2,40.34,-0.9479,2.172
Cc1ccccc1C1(CNC(=O)CCN2C(=O)CCC2=O)CC1,10.05,-7.335,-
CC(=O)c1cccc(NC(=O)c2cnc(N3CCN(C)CC3)nc2C)c1,42.07,-0.6221,-14.57
CCc1nc(C2CCCN(C(=O)c3c(C)noc3C)C2)no1 (stereo not given),-23.12,17.68,-
CCOc1ccccc1CCC(=O)Nc1c(C)nn(C)c1C,-11.13,1.497,-35.08
OCc1cc2ccccc2nc1NCC1CC1,8.973,-1.459,-3.904
COc1ccc(C(=O)NC(CC(=O)O)c2cccs2)c(OC)c1 (stereo not given),22.05,-2.939,-10.75
O=C1COC2(CCN(c3cccc(F)c3)CC2)CN1Cc1ccccn1,-,-4.158,-
CC(C)NC(=O)NC[C@H]1OC[C@@H](NCc2ccccc2F)[C@@H]1O,-14.74,1.766,-13.24
c1cncc(C2=NOC3(CCN(Cc4c[nH]c5ccccc45)CC3)C2)c1,11.25,4.927,-
O=C(O)C(F)(F)F.O=C(O)C(F)(F)F.c1cc(C2CC2)n2cnc(C3CN(Cc4ccncc4)CCO3)c2c1 (stereo not given),17.09,-,-86.78
O=C(COc1ccccc1F)NCC(O)(c1ccccc1)C1CC1 (stereo not given),-21.44,1.895,-10.67
OC1(Cn2ccc3ccncc32)CCN(Cc2ccccn2)CC1,14.03,1.421,-5.514
CCc1ccccc1OCCN1CCC(NS(C)(=O)=O)CC1,26.35,-1.469,21.24
O=C(NCc1ccc(N2CC=CC2)cc1)Nc1nnc(C2CC2)s1,-3.105,-3.745,-16.31
O=C(c1cccnc1N1CCN(CCO)CC1)N1CCCC1,-,-1.938,-
O=C(CCN1CCCO1)NC1CCCN(CC2CCCCC2)C1 (stereo not given),-12.16,-2.738,-10.61
Cc1cc(C(=O)N2CCCN(Cc3nccn3C)CC2)no1,5.002,11.23,-16.77
Cc1ccccc1S(=O)(=O)NC(=O)CSc1ccc2c(c1)OCCO2,6.035,-4.36,-0.2456
O=C(NCC1CCS(=O)(=O)C1)N(Cc1ccco1)C1CC1 (stereo not given),19.3,-1.698,-0.03353
CCc1nc(C)c(C2CC(=O)Nc3c2c(-c2cccnc2)nn3C)[nH]1 (stereo not given),-3.057,-5.782,-20.42
N#Cc1ccnc(N2CCN(CC(O)c3c(F)cccc3F)CC2)c1 (stereo not given),-5.461,6.002,-11.43
O=C(O)C(F)(F)F.[H][C@@]12CCN(CC3CCOCC3)C[C@@]1([H])O[C@@H](C(=O)N1CCC(C)CC1)C2,22.5,-,-28.69
O=C(c1ccncc1)N1CCC2(CC1)C(=O)Nc1ccccc12,-,-3.653,-
Fc1ccc(CN2CC[C@H]3O[C@@H](COCc4cccnc4)CC[C@H]32)cc1,-,-5.838,-
CSC(C)(C)CNC(=O)Nc1cccc(-c2nccn2C)c1,10.67,3.97,-17.68
COCCN1CCc2onc(C(c3ccccc3)c3ccccc3)c2C1,23.96,-2.216,-12.74
Cc1c[nH]c(CN(C)c2nc(C3CCCC3)nc3c2cnn3C)n1,28.65,-0.5687,-33.08
CCOCc1ncn2c1CN(C(=O)c1ccoc1)CC2,37.06,-9.932,-22.27
CCCc1cc(C(=O)NC(C)c2ccccc2)n(C)n1 (stereo not given),52.97,-7.187,-4.739
CCn1cc(NC(=O)C2CCN(CCOC(C)C)CC2)cn1,41.13,-3.801,-29.64
CS(=O)(=O)N1CCC(c2nc3ccc(-c4cccc(F)c4)cn3n2)CC1,-5.044,-,-2.717
CC(=O)Nc1ccc2nc(-c3nccn3CC(C)(C)CO)ccc2c1,-26.15,-4.505,-30.16
Cc1c(C(=O)N2CCC(O)(CN(C)C)C2)c2ccccc2n1C (stereo not given),19.06 and 11.6,16.75,-3.322
COC(=O)CCC(=O)Nc1ccc(Br)c(C)n1,5.841,2.579,7.97
CCn1nc(C)cc1NC(=O)CCn1nc(C)c2ccccc21,18.09,0.5092,12.12
CCc1ncc(CN(C)C2CCN(c3sccc3C#N)C2=O)s1 (stereo not given),21.68,-4.143,-3.492
Cl.NCc1cc(-c2ccccc2)n2nccc2n1,42.21 and 8.356,-,-6.409
O=C(NCc1cccnc1)C1CC(=O)N(CC2CC2)C1 (stereo not given),8.726,-0.7037,-17.88
O=C(O)C(F)(F)F.O=C(O)C(F)(F)F.O=C(O)C(F)(F)F.[H][C@@]12CN(Cc3cccnc3)C[C@]1([H])[C@H](OC)CCN2c1ncc(F)cn1,-66.64 and -2.726,-,-17.08
CCS(=O)(=O)Nc1cnn(Cc2cccc(Cl)c2)c1,30.59,0.3236,6.164
CC1CCCN(Cc2coc(-c3cccc(F)c3)n2)C1 (stereo not given),30.98,2.638,25.45
Nc1cc(-c2ccc(C(=O)O)cc2O)c2cc[nH]c2n1,12.74,8.947,-26.41
Cc1nc([C@@H]2C[C@@H]3CCN(C(=O)c4occc4C)C[C@H]3O2)no1,-,11.44,-
O=c1cc(N2CCCC2)cnn1CC(F)F,-17.46,2.452,-43
O=C1[C@H]2CN(Cc3ccc(F)cc3)C[C@H]2CN1c1cncnc1,-,-2.811,-
COCc1ccccc1CNC(=O)CNc1ccccc1C(C)=O,-9.101,0.9855,-0.5181
Cc1ccc(-c2cc(C(=O)NCCC3=CCCCC3)[nH]n2)o1,-168.7,5.993,-
O=C(NCc1csc(Br)c1)Nc1cn[nH]c1,-38.14,-3.366,-26.44
CN(C)C(=O)CN1CCC2(COCc3cnc(-c4ccccc4)nc32)C1 (stereo not given),31.1,-,-50.06
CN(c1ccccc1)c1ccc(CC2CCCN(CCO)C2)nn1 (stereo not given),-13.51,14.47,-
CN(C)c1cc(C(=O)NCC2(c3ccc(F)cc3)CC2)ccn1,10.61,1.467,-23.41
c1cc(CO[C@@H]2CC[C@H]3[C@H]2OCCN3CC2CCOCC2)ccn1,-,0.6103,-
O=C(CCn1ccc2ncccc2c1=O)N1CCCC1,7.684,-2.056,-60.18
CCn1ncc2c1NC(=O)CC2c1cnc(-c2ccccn2)nc1 (stereo not given),17.04,1.192,-21.91
CC(Cn1cccn1)n1cnc2cccc(F)c2c1=O (stereo not given),-14.29,2.415,14.65
Cc1cccc(=O)n1CCC(=O)N1CC[C@](C)(O)[C@H](C)C1,12.28,-1.083,-9.446
O=C(O)C(F)(F)F.O=C(O)C(F)(F)F.[H][C@@]12CCN(Cc3cccc(C#N)c3)[C@@]1([H])CC(=O)N2CCN1CCCC1,-1.615,-,-1073
[H][C@@]12CS(=O)(=O)C[C@]1([H])N(Cc1ccoc1)CCN2Cc1ccncc1,2.52,-,3.035
O=C(O)C(F)(F)F.[H][C@]12C[C@@H](Cn3cncn3)N(C(C)=O)[C@@]1([H])CCN(c1ncc(F)cn1)C2,13.31,-,4.904
O=C(NCc1ccccn1)N1CC=C(c2ccccc2)CC1,1.233,-2.673,-11.55
CN(C)CCOCC1CN(Cc2ccccn2)Cc2nnn(C)c21.O=C(O)C(F)(F)F.O=C(O)C(F)(F)F.O=C(O)C(F)(F)F (stereo not given),1.484,-,-57.69
[H][C@@]12COC[C@]1(COCC1CC1)CN(S(=O)(=O)c1ccccc1)C2,-15.3 and 3.143,-,-59.82
COc1cc(CCNC(=O)NCCC2CCCO2)ccc1C (stereo not given),26.55,-1.644,-40.43
CCN(C)S(=O)(=O)N(Cc1cscn1)c1ccccc1,-18.14,-1.001,2.867
CC(NC(=O)c1cccc[n+]1[O-])C1CC1 (stereo not given),17.86,-4.913,-0.3004

For reference, 9 entries once more:

* Cc1cc(C(=O)N2CCCN(Cc3nccn3C)CC2)no1 | Leishmania in macrophages: 5.002%; MtTrpRS: 11.23%; T. brucei: -16.77%
* c1cncc(C2=NOC3(CCN(Cc4c[nH]c5ccccc45)CC3)C2)c1 | Leishmania in macrophages: 11.25%; MtTrpRS: 4.927%
* N#Cc1ccnc(N2CCN(CC(O)c3c(F)cccc3F)CC2)c1 (stereo not given) | Leishmania in macrophages: -5.461%; MtTrpRS: 6.002%; T. brucei: -11.43%
* [H][C@@]12CS(=O)(=O)C[C@]1([H])N(Cc1ccoc1)CCN2Cc1ccncc1 | Leishmania in macrophages: 2.52%; T. brucei: 3.035%
* CCc1ccccc1OCCN1CCC(NS(C)(=O)=O)CC1 | Leishmania in macrophages: 26.35%; MtTrpRS: -1.469%; T. brucei: 21.24%
* CCn1ncc2c1NC(=O)CC2c1cnc(-c2ccccn2)nc1 (stereo not given) | Leishmania in macrophages: 17.04%; MtTrpRS: 1.192%; T. brucei: -21.91%
* Cc1ccccc1C1(CNC(=O)CCN2C(=O)CCC2=O)CC1 | Leishmania in macrophages: 10.05%; MtTrpRS: -7.335%
* [H][C@@]12COC[C@]1(COCC1CC1)CN(S(=O)(=O)c1ccccc1)C2 | Leishmania in macrophages: -15.3% and 3.143%; T. brucei: -59.82%
* O=C1COC2(CCN(c3cccc(F)c3)CC2)CN1Cc1ccccn1 | MtTrpRS: -4.158%

Data taken from ChEMBL document CHEMBL3988442, “University of Dundee, Small-Polar-MMV Screening Library” (2021).